Test results taken from publication PMC8255064.
These are yes or no findings as the source states them, for the method shown. In cells and extracts the contact can be indirect. Some binding calls cover weakened binding; strength is not graded here. Values belong to the molecule of their own block, whether it stands above or below them.

By UniProt entry, the sequences of proteins in these tests, tags left out.
UniProt O15105: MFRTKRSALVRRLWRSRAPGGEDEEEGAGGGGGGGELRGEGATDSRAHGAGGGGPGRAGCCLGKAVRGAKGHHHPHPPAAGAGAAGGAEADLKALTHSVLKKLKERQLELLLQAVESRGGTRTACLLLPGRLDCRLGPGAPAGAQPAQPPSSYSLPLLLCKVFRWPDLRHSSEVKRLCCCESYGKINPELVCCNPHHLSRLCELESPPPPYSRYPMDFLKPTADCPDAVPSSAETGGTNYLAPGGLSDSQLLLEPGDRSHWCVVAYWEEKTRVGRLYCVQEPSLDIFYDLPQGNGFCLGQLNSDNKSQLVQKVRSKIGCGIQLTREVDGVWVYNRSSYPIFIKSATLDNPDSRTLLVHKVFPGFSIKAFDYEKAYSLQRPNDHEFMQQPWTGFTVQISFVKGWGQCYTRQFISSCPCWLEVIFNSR
UniProt Q9HAU4: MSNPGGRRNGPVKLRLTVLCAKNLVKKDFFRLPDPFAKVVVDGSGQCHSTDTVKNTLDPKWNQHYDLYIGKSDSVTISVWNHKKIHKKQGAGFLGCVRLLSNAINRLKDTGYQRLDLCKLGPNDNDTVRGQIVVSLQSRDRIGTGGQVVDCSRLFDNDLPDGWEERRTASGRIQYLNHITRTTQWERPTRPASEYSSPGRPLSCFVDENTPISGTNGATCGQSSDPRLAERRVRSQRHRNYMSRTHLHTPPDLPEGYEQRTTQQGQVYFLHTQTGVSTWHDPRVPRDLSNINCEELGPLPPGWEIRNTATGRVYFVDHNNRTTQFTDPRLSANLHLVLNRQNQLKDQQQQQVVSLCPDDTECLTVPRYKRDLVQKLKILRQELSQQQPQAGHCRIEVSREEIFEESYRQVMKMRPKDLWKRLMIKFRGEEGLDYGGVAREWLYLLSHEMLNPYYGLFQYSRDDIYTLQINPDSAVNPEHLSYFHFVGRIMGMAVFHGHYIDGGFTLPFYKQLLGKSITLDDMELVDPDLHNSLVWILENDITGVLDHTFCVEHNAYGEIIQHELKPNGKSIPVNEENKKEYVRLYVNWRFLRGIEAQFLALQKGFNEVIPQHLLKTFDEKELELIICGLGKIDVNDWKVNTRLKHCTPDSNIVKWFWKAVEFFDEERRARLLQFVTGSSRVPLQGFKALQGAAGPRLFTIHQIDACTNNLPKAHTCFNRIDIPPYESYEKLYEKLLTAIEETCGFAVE

Molecular target: Smad7 (human (endogenous in LX-2)) (UniProt O15105)
Test: co-IP; LX-2 cell lysates incubated with anti-Smad7 at 4°C for 6 h, then Protein A/G agarose beads overnight; blots of the precipitate; cells treated with or without 5 ng/ml TGF-β1 along with 1 mg/ml CKI for 12 h

binding: binds
Molecule: Smurf2 (from UniProt Q9HAU4 1-748)

binding: binds
B1: TGF-β receptor type 1 (receptor, UniProt P36897 34-503)
chain: LQCFCHLCTKDNFTCVTDGLCFVSVTETTDKVIHNSMCIAEIDLIPRDRPFVCAPSSKTGSVTTTYCCNQDHCNKIELPTTVKSSPGLGPVELAAVIAGPVCFVCISLMLMVYICHNRTVIHHRVPNEEDPSLDRPFISEGTTLKDLIYDMTTSGSGSGLPLLVQRTIARTIVLQESIGKGRFGEVWRGKWRGEEVAVKIFSSREERSWFREAEIYQTVMLRHENILGFIAADNKDNGTWTQLWLVSDYHEHGSLFDYLNRYTVTVEGMIKLALSTASGLAHLHMEIVGTQGKPAIAHRDLKSKNILVKKNGTCCIADLGLAVRHDSATDTIDIAPNHRVGTKRYMAPEVLDDSINMKHFESFKRADIYAMGLVFWEIARRCSIGGIHEDYQLPYYDLVPSDPSVEEMRKVVCEQKLRPNIPNRWQSCEALRVMAKIMRECWYANGAARLTALRIKKTLSQLSQQEGIKM
